Some of the results follow.
Legend:
Assay in all cases: log2 fold change, soluble protein after heating vs DMSO (PISA); higher = thermal stabilisation; K562 lysate, 10 uM; active = over 0.2 and 3.5 SD of the protein, either way, in both replicates (recomputed)
alvocidib = compound: CN1CC[C@H](c2c(O)cc(O)c3c(=O)cc(-c4ccccc4Cl)oc23)[C@H](O)C1 [alvocidib]
Method in brief: (§1)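 Thermal stability, expressed as log-two fold change relative to solvent controls, is given from duplicates. Crude K562 extract in PBS pH 7.4 with 1 mM MgCl2, at 1 mg/mL protein, was treated with 10 μM compound for 30 min and heated in aliquots for 3 min across 48°C-58°C. After pooling, adjustment to 0.5% NP-40 at 4°C and centrifugation at 21,000xg for 90 min, supernatant protein was measured by TMTpro 16plex LC-MS/MS with channel sums equalised.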

The chains behind the UniProt entries cited, without tags or fusion partners. Where a name states a change or a piece, a line headed by the entry shows the natural chain unless it says otherwise.
UniProt Q9BXI6: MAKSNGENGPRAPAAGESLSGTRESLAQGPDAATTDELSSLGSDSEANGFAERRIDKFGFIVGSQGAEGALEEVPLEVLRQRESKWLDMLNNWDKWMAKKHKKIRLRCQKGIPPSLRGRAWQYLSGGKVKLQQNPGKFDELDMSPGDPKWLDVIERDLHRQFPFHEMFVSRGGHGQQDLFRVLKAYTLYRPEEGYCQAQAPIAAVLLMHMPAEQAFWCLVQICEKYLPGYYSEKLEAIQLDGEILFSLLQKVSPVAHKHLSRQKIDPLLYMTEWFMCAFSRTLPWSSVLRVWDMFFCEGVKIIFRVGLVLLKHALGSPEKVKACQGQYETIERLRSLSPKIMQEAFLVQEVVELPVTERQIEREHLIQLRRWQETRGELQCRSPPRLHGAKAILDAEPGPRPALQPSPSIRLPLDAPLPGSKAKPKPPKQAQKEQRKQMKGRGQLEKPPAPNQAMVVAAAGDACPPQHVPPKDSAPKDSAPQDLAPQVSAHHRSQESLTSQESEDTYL
UniProt O43435: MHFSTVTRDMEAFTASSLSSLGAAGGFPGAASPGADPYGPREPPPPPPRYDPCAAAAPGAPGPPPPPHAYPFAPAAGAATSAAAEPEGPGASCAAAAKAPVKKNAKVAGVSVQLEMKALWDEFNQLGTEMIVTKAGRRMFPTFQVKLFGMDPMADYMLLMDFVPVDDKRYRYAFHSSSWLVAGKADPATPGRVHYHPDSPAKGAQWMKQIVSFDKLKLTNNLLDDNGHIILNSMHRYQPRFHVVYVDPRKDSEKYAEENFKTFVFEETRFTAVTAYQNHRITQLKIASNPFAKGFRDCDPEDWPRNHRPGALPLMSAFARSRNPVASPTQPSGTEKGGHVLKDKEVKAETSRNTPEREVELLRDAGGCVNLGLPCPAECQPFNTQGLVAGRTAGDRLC
UniProt Q6NUS6: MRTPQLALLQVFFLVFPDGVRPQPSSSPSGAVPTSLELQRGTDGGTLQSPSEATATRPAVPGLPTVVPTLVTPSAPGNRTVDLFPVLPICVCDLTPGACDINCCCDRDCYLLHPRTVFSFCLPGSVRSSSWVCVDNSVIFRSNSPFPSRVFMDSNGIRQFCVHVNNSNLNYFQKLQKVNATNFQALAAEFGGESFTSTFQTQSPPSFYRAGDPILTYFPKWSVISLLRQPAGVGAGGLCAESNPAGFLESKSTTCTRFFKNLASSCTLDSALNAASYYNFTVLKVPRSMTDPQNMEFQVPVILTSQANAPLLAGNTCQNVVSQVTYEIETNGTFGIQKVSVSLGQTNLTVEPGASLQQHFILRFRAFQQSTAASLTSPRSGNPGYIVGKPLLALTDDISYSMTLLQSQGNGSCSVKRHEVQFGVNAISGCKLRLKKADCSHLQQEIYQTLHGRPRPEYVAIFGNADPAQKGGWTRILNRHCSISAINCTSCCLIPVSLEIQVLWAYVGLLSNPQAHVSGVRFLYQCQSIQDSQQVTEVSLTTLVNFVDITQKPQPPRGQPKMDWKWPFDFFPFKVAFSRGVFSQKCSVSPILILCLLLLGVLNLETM
UniProt Q7Z6L1: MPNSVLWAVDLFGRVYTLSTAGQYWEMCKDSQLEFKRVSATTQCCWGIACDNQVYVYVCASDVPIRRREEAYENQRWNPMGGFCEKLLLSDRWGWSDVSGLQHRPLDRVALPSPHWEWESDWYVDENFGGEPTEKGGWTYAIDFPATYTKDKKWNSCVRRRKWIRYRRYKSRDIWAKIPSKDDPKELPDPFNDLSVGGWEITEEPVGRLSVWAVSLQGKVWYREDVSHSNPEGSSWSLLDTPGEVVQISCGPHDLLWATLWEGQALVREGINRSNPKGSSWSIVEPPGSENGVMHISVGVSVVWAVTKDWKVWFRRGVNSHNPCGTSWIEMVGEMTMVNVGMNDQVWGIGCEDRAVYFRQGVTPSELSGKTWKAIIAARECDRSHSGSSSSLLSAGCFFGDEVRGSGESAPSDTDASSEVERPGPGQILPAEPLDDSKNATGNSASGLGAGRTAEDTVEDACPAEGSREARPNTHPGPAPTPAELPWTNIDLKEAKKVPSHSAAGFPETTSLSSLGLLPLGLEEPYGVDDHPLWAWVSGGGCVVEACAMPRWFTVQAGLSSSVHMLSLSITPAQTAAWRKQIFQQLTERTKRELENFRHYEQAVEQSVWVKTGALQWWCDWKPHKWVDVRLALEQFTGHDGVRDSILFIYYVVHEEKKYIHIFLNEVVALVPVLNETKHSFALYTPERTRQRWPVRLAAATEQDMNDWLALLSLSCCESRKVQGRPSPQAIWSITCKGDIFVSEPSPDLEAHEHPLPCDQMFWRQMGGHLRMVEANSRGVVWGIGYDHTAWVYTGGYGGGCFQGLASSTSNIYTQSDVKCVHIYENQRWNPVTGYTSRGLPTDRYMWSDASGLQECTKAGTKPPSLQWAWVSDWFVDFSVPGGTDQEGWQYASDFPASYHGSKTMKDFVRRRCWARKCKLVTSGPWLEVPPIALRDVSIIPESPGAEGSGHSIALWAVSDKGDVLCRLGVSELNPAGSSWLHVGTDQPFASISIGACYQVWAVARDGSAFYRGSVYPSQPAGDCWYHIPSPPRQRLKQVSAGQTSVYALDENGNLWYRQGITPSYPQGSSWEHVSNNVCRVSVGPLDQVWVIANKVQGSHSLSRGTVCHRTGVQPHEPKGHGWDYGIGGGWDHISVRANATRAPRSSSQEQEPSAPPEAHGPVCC
UniProt Q8N4U5: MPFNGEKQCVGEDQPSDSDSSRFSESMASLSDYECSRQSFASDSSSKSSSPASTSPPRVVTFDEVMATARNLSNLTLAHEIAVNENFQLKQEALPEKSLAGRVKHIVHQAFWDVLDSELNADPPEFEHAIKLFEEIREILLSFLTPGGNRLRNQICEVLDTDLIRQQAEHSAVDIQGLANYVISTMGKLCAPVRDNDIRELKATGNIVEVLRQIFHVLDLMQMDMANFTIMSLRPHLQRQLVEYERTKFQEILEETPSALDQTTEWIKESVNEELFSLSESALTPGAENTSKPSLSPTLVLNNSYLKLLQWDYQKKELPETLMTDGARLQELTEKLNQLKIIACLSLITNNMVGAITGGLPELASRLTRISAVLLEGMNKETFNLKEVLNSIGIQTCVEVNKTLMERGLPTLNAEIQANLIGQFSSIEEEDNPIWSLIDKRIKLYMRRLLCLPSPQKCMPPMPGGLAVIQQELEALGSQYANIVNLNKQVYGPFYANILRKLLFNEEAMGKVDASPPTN

Tubastatin A = compound: CN1CCc2c(c3ccccc3n2Cc2ccc(C(=O)NO)cc2)C1 [Tubastatin A]
Method in brief: as §1

[1] = compound: CNC(=O)C1=CC=CC=C1NC2=NC(=NC=C2Cl)NC3=C(C=C(C=C3)N4CCOCC4)OC
Method in brief: as §1

[2] = compound: CNc1nc(-c2ccc3c(N)n[nH]c3c2)cc(N2C[C@@H](C(=O)NC3CCCCC3)CC[C@H]2C)n1
Method in brief: as §1

alisertib = compound: COc1cc(Nc2ncc3c(n2)-c2ccc(Cl)cc2C(c2c(F)cccc2OC)=NC3)ccc1C(=O)O [alisertib]
Method in brief: as §1

[3] = compound: COc1cc2nc(-c3cc(F)ccc3O)nc(N[C@@H]3CNC[C@H]3C(C)(C)O)c2cc1OC
Method in brief: as §1

gefitinib = compound: COc1cc2ncnc(Nc3ccc(F)c(Cl)c3)c2cc1OCCCN1CCOCC1 [gefitinib]
Method in brief: as §1

lapatinib = compound: CS(=O)(=O)CCNCc1ccc(-c2ccc3ncnc(Nc4ccc(OCc5cccc(F)c5)c(Cl)c4)c3c2)o1 [lapatinib]
Method in brief: as §1

pictilisib = compound: CS(=O)(=O)N1CCN(Cc2cc3nc(-c4cccc5[nH]ncc45)nc(N4CCOCC4)c3s2)CC1 [pictilisib]
Method in brief: as §1

crizotinib = compound: C[C@@H](Oc1cc(-c2cnn(C3CCNCC3)c2)cnc1N)c1c(Cl)ccc(F)c1Cl [crizotinib]
Method in brief: as §1

[4] = compound: C[C@H](C1=CC=C(C=C1)C(=O)NC2=C3C=CNC3=NC=C2)N
Method in brief: as §1

duvelisib = compound: C[C@H](Nc1ncnc2nc[nH]c12)c1cc2cccc(Cl)c2c(=O)n1-c1ccccc1 [duvelisib]
Method in brief: as §1

gandotinib = compound: Cc1cc(Nc2cc(CN3CCOCC3)c3nc(C)c(Cc4ccc(Cl)cc4F)n3n2)n[nH]1 [gandotinib]
Method in brief: as §1

doramapimod = compound: Cc1ccc(-n2nc(C(C)(C)C)cc2NC(=O)Nc2ccc(OCCN3CCOCC3)c3ccccc23)cc1 [doramapimod]
Method in brief: as §1

bafetinib = compound: Cc1ccc(NC(=O)c2ccc(CN3CC[C@H](N(C)C)C3)c(C(F)(F)F)c2)cc1Nc1nccc(-c2cncnc2)n1 [bafetinib]
Method in brief: as §1

[5] = compound: Cc1cccc(CC(=O)N2CCc3c2ccc(-c2cn(C)c4ncnc(N)c24)c3F)n1
Method in brief: as §1

defactinib = compound: CNC(=O)c1ccc(Nc2ncc(C(F)(F)F)c(NCc3nccnc3N(C)S(C)(=O)=O)n2)cc1 [defactinib]
Method in brief: as §1

encorafenib = compound: COC(=O)N[C@@H](C)CNc1nccc(-c2cn(C(C)C)nc2-c2cc(Cl)cc(NS(C)(=O)=O)c2F)n1 [encorafenib]
Method in brief: as §1

[6] = compound: COC(=O)[C@H](CCSC)NC(=O)C1=C(C=C(C=C1)NC[C@H](CS)N)C2=CC=CC=C2
Method in brief: as §1

tozasertib = compound: Cc1cc(Nc2cc(N3CCN(C)CC3)nc(Sc3ccc(NC(=O)C4CC4)cc3)n2)n[nH]1 [tozasertib]
Method in brief: as §1

Measured: log2 fold change

TBC1D10A (UniProt Q9BXI6)
inactive: alvocidib -0.044 | Tubastatin A -0.034 | [1] 0.051 | [2] -0.099 | alisertib -0.037 | [3] 0.032 | gefitinib 0.029 | lapatinib -0.007 | pictilisib -0.024 | crizotinib 0.045 | [4] -0.072 | duvelisib 0.031 | gandotinib -0.096 | doramapimod -0.113 | bafetinib -0.118 | [5] 0.01

TBX1 isoform 3 (UniProt O43435)
inactive: alvocidib -0.196 | defactinib -0.074 | encorafenib 0.026 | [6] -0.135 | pictilisib -0.153 | [4] -0.181 | gandotinib -0.025 | tozasertib 0.052 | bafetinib -0.088 | [5] -0.012

TCTN3 (UniProt Q6NUS6)
inactive: alvocidib 0.025 | alisertib -0.072 | gefitinib -0.003 | crizotinib 0.048 | [4] -0.103 | gandotinib -0.077 | doramapimod -0.119 | [5] 0.106

TECPR1 isoform 4 (UniProt Q7Z6L1)
inactive: alvocidib -0.071 | [1] 0.107 | [2] -0.049 | [3] -0.264 | lapatinib -0.012 | pictilisib -0.56 | [4] -0.161 | duvelisib 0.007 | gandotinib 0.058 | bafetinib -0.15 | [5] 0.097

TCP11L2 (UniProt Q8N4U5)
inactive: alvocidib -0.006 | Tubastatin A -0.169 | [1] -0.112 | defactinib -0.015 | encorafenib 0.069 | [6] 0.122 | [4] -0.217 | gandotinib 0.019 | tozasertib -0.064 | [5] 0.024

Reference: the supplement of paper PMC10849652
